{"source": "patent US20140038203A1", "about": "“METHODS FOR DETECTING OR PREDICTING KIDNEY DISEASE” (MUSC FOUNDATION FOR RESEARCH DEVELOPMENT, priority 2012, published 2014)", "molecules": {"B1": {"name": "Lithostathine-1-beta (protein, UniProt P48304 23-166, looked up)", "Lithostathine-1-beta": "QESQTELPNPRISCPEGTNAYRSYCYYFNEDPETWVDADLYCQNMNSGNLVSVLTQAEGAFVASLIKESSTDDSNVWIGLHDPKKNRRWHWSSGSLVSYKSWDTGSPSSANAGYCASLTSCSGFKKWKDESCEKKFSFVCKFKN"}, "B2": {"name": "Fibulin-1 (protein, UniProt P23142 30-703, looked up)", "Fibulin-1": "DVLLEACCADGHRMATHQKDCSLPYATESKECRMVQEQCCHSQLEELHCATGISLANEQDRCATPHGDNASLEATFVKRCCHCCLLGRAAQAQGQSCEYSLMVGYQCGQVFQACCVKSQETGDLDVGGLQETDKIIEVEEEQEDPYLNDRCRGGGPCKQQCRDTGDEVVCSCFVGYQLLSDGVSCEDVNECITGSHSCRLGESCINTVGSFRCQRDSSCGTGYELTEDNSCKDIDECESGIHNCLPDFICQNTLGSFRCRPKLQCKSGFIQDALGNCIDINECLSISAPCPIGHTCINTEGSYTCQKNVPNCGRGYHLNEEGTRCVDVDECAPPAEPCGKGHRCVNSPGSFRCECKTGYYFDGISRMCVDVNECQRYPGRLCGHKCENTLGSYLCSCSVGFRLSVDGRSCEDINECSSSPCSQECANVYGSYQCYCRRGYQLSDVDGVTCEDIDECALPTGGHICSYRCINIPGSFQCSCPSSGYRLAPNGRNCQDIDECVTGIHNCSINETCFNIQGGFRCLAFECPENYRRSAATLQQEKTDTVRCIKSCRPNDVTCVFDPVHTISHTVISLPTFREFTRPEEIIFLRAITPPHPASQANIIFDITEGNLRDSFDIIKRYMDGMTVGVVRQVRPIVGPFHAVLKLEMNYVVGGVVSHRNVVNVHIFVSEYWF"}, "B3": {"name": "Cadherin-13 (protein, UniProt P55290 139-693, looked up)", "Cadherin-13": "SIVVSPILIPENQRQPFPRDVGKVVDSDRPERSKFRLTGKGVDQEPKGIFRINENTGSVSVTRTLDREVIAVYQLFVETTDVNGKTLEGPVPLEVIVIDQNDNRPIFREGPYIGHVMEGSPTGTTVMRMTAFDADDPATDNALLRYNIRQQTPDKPSPNMFYIDPEKGDIVTVVSPALLDRETLENPKYELIIEAQDMAGLDVGLTGTATATIMIDDKNDHSPKFTKKEFQATVEEGAVGVIVNLTVEDKDDPTTGAWRAAYTIINGNPGQSFEIHTNPQTNEGMLSVVKPLDYEISAFHTLLIKVENEDPLVPDVSYGPSSTATVHITVLDVNEGPVFYPDPMMVTRQEDLSVGSVLLTVNATDPDSLQHQTIRYSVYKDPAGWLNINPINGTVDTTAVLDRESPFVDNSVYTALFLAIDSGNPPATGTGTLLITLEDVNDNAPFIYPTVAEVCDDAKNLSVVILGASDKDLHPNTDPFKFEIHKQAVPDKVWKISKINNTHALVSLLQNLNKANYNLPIMVTDSGKPPMTNITDLRVQVCSCRNSKVDCNAAG"}, "B4": {"name": "Macrophage colony-stimulating factor 1 (protein, UniProt P09603 33-554, looked up)", "Macrophage colony-stimulating …": "EEVSEYCSHMIGSGHLQSLQRLIDSQMETSCQITFEFVDQEQLKDPVCYLKKAFLLVQDIMEDTMRFRDNTPNAIAIVQLQELSLRLKSCFTKDYEEHDKACVRTFYETPLQLLEKVKNVFNETKNLLDKDWNIFSKNCNNSFAECSSQDVVTKPDCNCLYPKAIPSSDPASVSPHQPLAPSMAPVAGLTWEDSEGTEGSSLLPGEQPLHTVDPGSAKQRPPRSTCQSFEPPETPVVKDSTIGGSPQPRPSVGAFNPGMEDILDSAMGTNWVPEEASGEASEIPVPQGTELSPSRPGGGSMQTEPARPSNFLSASSPLPASAKGQQPADVTGTALPRVGPVRPTGQDWNHTPQKTDHPSALLRDPPEPGSPRISSLRPQGLSNPSTLSAQPQLSRSHSSGSVLPLGELEGRRSTRDRRSPAEPEGGPASEGAARPLPRFNSVPLTDTGHERQSEGSFSPQLQESVFHLLVPSVILVLLAVGGLLFYRWRRRSHQEPQRADSPLEQPEGSPLTQDDRQVELPV"}, "B5": {"name": "Ig alpha-2 chain C region (protein, UniProt P01877 1-391, looked up)", "Immunoglobulin heavy constant …": "ASPTSPKVFPLSLDSTPQDGNVVVACLVQGFFPQEPLSVTWSESGQNVTARNFPPSQDASGDLYTTSSQLTLPATQCPDGKSVTCHVKHYTNSSQDVTVPCRVPPPPPCCHPRLSLHRPALEDLLLGSEANLTCTLTGLRDASGATFTWTPSSGKSAVQGPPERDLCGCYSVSSVLPGCAQPWNHGETFTCTAAHPELKTPLTANITKSGNTFRPEVHLLPPPSEELALNELVTLTCLARGFSPKDVLVRWLQGSQELPREKYLTWASRQEPSQGTTTYAVTSILRVAAEDWKKGETFSCMVGHEALPLAFTQKTIDRMAGSCCVADWQMPPPYVVLDLPQETLEEETPGANLWPTTITFLTLFLLSLFYSTALTVTSVRGPSGKREGPQY"}, "B6": {"name": "Inter-alpha-trypsin inhibitor heavy chain H2 (protein, UniProt P19823 55-702, looked up)", "Inter-alpha-trypsin inhibitor …": "SLPGESEEMMEEVDQVTLYSYKVQSTITSRMATTMIQSKVVNNSPQPQNVVFDVQIPKGAFISNFSMTVDGKTFRSSIKEKTVGRALYAQARAKGKTAGLVRSSALDMENFRTEVNVLPGAKVQFELHYQEVKWRKLGSYEHRIYLQPGRLAKHLEVDVWVIEPQGLRFLHVPDTFEGHFDGVPVISKGQQKAHVSFKPTVAQQRICPNCRETAVDGELVVLYDVKREEKAGELEVFNGYFVHFFAPDNLDPIPKNILFVIDVSGSMWGVKMKQTVEAMKTILDDLRAEDHFSVIDFNQNIRTWRNDLISATKTQVADAKRYIEKIQPSGGTNINEALLRAIFILNEANNLGLLDPNSVSLIILVSDGDPTVGELKLSKIQKNVKENIQDNISLFSLGMGFDVDYDFLKRLSNENHGIAQRIYGNQDTSSQLKKFYNQVSTPLLRNVQFNYPHTSVTDVTQNNFHNYFGGSEIVVAGKFDPAKLDQIESVITATSANTQLVLETLAQMDDLQDFLSKDKHADPDFTRKLWAYLTINQLLAERSLAPTAAAKRRITRSILQMSLDHHIVTPLTSLVIENEAGDERMLADAPPQDPSCCSGALYYGSKVVPDSTPSWANPSPTPVISMLAQGSQVLESTPPPHVMRVEND"}, "B7": {"name": "Complement factor H-related protein 2 (protein, UniProt P36980 19-270, looked up)", "Complement factor H-related …": "EAMFCDFPKINHGILYDEEKYKPFSQVPTGEVFYYSCEYNFVSPSKSFWTRITCAEEGWSPTPKCLRLCFFPFVENGHSESSGQTHLEGDTVQIICNTGYRLQNNENNISCVERGWSTPPKCRSTISAEKCGPPPPIDNGDITSFLLSVYAPGSSVEYQCQNLYQLEGNNQITCRNGQWSEPPKCLDPCVISQEIMEKYNIKLKWTNQQKLYSRTGDIVEFVCKSGYHPTKSHSFRAMCQNGKLVYPSCEEK"}, "B8": {"name": "SPARC-like protein 1 (protein, UniProt Q14515 17-664, looked up)", "SPARC-like protein 1": "IPTNARLLSDHSKPTAETVAPDNTAIPSLRAEAEENEKETAVSTEDDSHHKAEKSSVLKSKEESHEQSAEQGKSSSQELGLKDQEDSDGHLSVNLEYAPTEGTLDIKEDMSEPQEKKLSENTDFLAPGVSSFTDSNQQESITKREENQEQPRNYSHHQLNRSSKHSQGLRDQGNQEQDPNISNGEEEEEKEPGEVGTHNDNQERKTELPREHANSKQEEDNTQSDDILEESDQPTQVSKMQEDEFDQGNQEQEDNSNAEMEEENASNVNKHIQETEWQSQEGKTGLEAISNHKETEEKTVSEALLMEPTDDGNTTPRNHGVDDDGDDDGDDGGTDGPRHSASDDYFIPSQAFLEAERAQSIAYHLKIEEQREKVHENENIGTTEPGEHQEAKKAENSSNEEETSSEGNMRVHAVDSCMSFQCKRGHICKADQQGKPHCVCQDPVTCPPTKPLDQVCGTDNQTYASSCHLFATKCRLEGTKKGHQLQLDYFGACKSIPTCTDFEVIQFPLRMRDWLKNILMQLYEANSEHAGYLNEKQRNKVKKIYLDEKRLLAGDHPIDLLLRDFKKNYHMYVYPVHWQFSELDQHPMDRVLTHSELAPLRASLVPMEHCITRFFEECDPNKDKHITLKEWGHCFGIKEEDIDENLLF"}, "B9": {"name": "Endothelial protein C receptor (protein, UniProt Q9UNN8 18-238, looked up)", "Endothelial protein C receptor": "SQDASDGLQRLHMLQISYFRDPYHVWYQGNASLGGHLTHVLEGPDTNTTIIQLQPLQEPESWARTQSGLQSYLLQFHGLVRLVHQERTLAFPLTIRCFLGCELPPEGSRAHVFFEVAVNGSSFVSFRPERALWQADTQVTSGVVTFTLQQLNAYNRTRYELREFLEDTCVQYVQKHISAENTKGSQTSRSYTSLVLGVLVGSFIIAGVAVGIFLCTGGRRC"}, "B10": {"name": "Connective tissue growth factor (protein, UniProt P29279 27-349, looked up)", "CCN family member 2": "QNCSGPCRCPDEPAPRCPAGVSLVLDGCGCCRVCAKQLGELCTERDPCDPHKGLFCHFGSPANRKIGVCTAKDGAPCIFGGTVYRSGESFQSSCKYQCTCLDGAVGCMPLCSMDVRLPSPDCPFPRRVKLPGKCCEEWVCDEPKDQTVVGPALAAYRLEDTFGPDPTMIRANCLVQTTEWSACSKTCGMGISTRVTNDNASCRLEKQSRLCMVRPCEADLEENIKKGKKCIRTPKISKPIKFELSGCTSMKTYRAKFCGVCTDGRCCTPHRTTTLPVEFKCPDGEVMKKNMMFIKTCACHYNCPGDNDIFESLYYRKMYGDMA"}, "B11": {"name": "Insulin-like growth factor-binding protein 4 (protein, UniProt P22692 22-258, looked up)", "Insulin-like growth …": "DEAIHCPPCSEEKLARCRPPVGCEELVREPGCGCCATCALGLGMPCGVYTPRCGSGLRCYPPRGVEKPLHTLMHGQGVCMELAEIEAIQESLQPSDKDEGDHPNNSFSPCSAHDRRCLQKHFAKIRDRSTSGGKMKVNGAPREDARPVPQGSCQSELHRALERLAASQSRTHEDLYIIPIPNCDRNGNFHPKQCHPALDGQRGKCWCVDRKTGVKLPGGLEPKGELDCHQLADSFRE"}}, "assay": "RRT study: LC-MS/MS urinary proteomics, AKI after cardiac surgery, RRT vs No RRT", "parameters": "species or system human", "conditions": "patients who did vs did not require RRT/dialysis; for Up or Down: direction of urinary abundance; for Mean Fold Change: read with the Up or Down column", "data": [{"molecule": "B1", "values": [{"measurement": "Up or Down", "result": "Up"}, {"measurement": "Mean Fold Change", "result": 1.247}]}, {"molecule": "B2", "values": [{"measurement": "Up or Down", "result": "Up"}, {"measurement": "Mean Fold Change", "result": 3.52}]}, {"molecule": "B3", "values": [{"measurement": "Up or Down", "result": "Up"}, {"measurement": "Mean Fold Change", "result": 1.294}]}, {"molecule": "B4", "values": [{"measurement": "Up or Down", "result": "Up"}, {"measurement": "Mean Fold Change", "result": 2.168}]}, {"molecule": "B5", "values": [{"measurement": "Up or Down", "result": "Up"}, {"measurement": "Mean Fold Change", "result": 2.589}]}, {"molecule": "B6", "values": [{"measurement": "Up or Down", "result": "Up"}]}, {"molecule": "B7", "values": [{"measurement": "Up or Down", "result": "Up"}]}, {"molecule": "B8", "values": [{"measurement": "Up or Down", "result": "Up"}, {"measurement": "Mean Fold Change", "result": 3.045}]}, {"molecule": "B9", "values": [{"measurement": "Up or Down", "result": "Up"}, {"measurement": "Mean Fold Change", "result": 1.695}]}, {"molecule": "B10", "values": [{"measurement": "Up or Down", "result": "Up"}]}, {"molecule": "B11", "values": [{"measurement": "Up or Down", "result": "Up"}]}]}
